The target of test [1] is GFP-P1 (rabies virus CVS-11 phosphoprotein, full-length isoform P1, fused to GFP) (rabies virus, strain CVS-11) (UniProt P22363). As to the kind of experiment: co-IP.
For test [2], the target named is GFP-P3 (rabies virus CVS-11 phosphoprotein, truncated isoform P3, residues 53-297, fused to GFP) (rabies virus, strain CVS-11) (UniProt P22363). As to the kind of experiment: co-IP.

Amino acid sequences for entries named in this document (tags omitted). A change or cut given only in a name is not applied to a line headed by its entry. Chains listed by the source or under a name are the forms on record and can include a tag or linker. Residues count along the entry.
UniProt P22363: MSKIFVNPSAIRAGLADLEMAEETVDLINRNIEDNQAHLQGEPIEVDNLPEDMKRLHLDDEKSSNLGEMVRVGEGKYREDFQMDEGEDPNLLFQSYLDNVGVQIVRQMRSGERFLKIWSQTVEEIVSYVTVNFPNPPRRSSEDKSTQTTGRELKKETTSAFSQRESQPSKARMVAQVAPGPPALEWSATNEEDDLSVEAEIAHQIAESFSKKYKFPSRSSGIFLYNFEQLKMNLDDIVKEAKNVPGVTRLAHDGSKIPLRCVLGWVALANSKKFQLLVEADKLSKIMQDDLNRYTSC
GFP-P3 (rabies virus CVS-11 phosphoprotein, truncated isoform P3, residues 53-297, fused to GFP): residues 53-297 of P22363

No constants are given. Whether binding was seen depends on the method and setting. In cells and extracts the contact can be indirect. Some entries that bind do so weakly or less than the wild type.

B1: RBM14 (protein, UniProt Q96PK6 1-669)
chain: MKIFVGNVDGADTTPEELAALFAPYGTVMSCAVMKQFAFVHMRENAGALRAIEALHGHELRPGRALVVEMSRPRPLNTWKIFVGNVSAACTSQELRSLFERRGRVIECDVVKDYAFVHMEKEADAKAAIAQLNGKEVKGKRINVELSTKGQKKGPGLAVQSGDKTKKPGAGDTAFPGTGGFSATFDYQQAFGNSTGGFDGQARQPTPPFFGRDRSPLRRSPPRASYVAPLTAQPATYRAQPSVSLGAAYRAQPSASLGVGYRTQPMTAQAASYRAQPSVSLGAPYRGQLASPSSQSAAASSLGPYGGAQPSASALSSYGGQAAAASSLNSYGAQGSSLASYGNQPSSYGAQAASSYGVRAAASSYNTQGAASSLGSYGAQAASYGAQSAASSLAYGAQAASYNAQPSASYNAQSAPYAAQQAASYSSQPAAYVAQPATAAAYASQPAAYAAQATTPMAGSYGAQPVVQTQLNSYGAQASMGLSGSYGAQSAAAATGSYGAAAAYGAQPSATLAAPYRTQSSASLAASYAAQQHPQAAASYRGQPGNAYDGAGQPSAAYLSMSQGAVANANSTPPPYERTRLSPPRASYDDPYKKAVAMSKRYGSDRRLAELSDYRRLSESQLSFRRSPTKSSLDYRRLPDAHSDYARYSGSYNDYLRAAQMHSGYQRRM
For the molecule B1, the binding entry in test [1] and in test [2] was “binds” throughout.
